The text below walks through data of PubChem BioAssay AID445 (National Center for Advancing Translational Sciences (NCATS), 2006).

The nature of this assay: IkB Signaling. As to conditions: ABC-DLBCL IkBa-CBG/CBR dual luciferase ratio (green luciferase fused to IkBa over red control in OCI-Ly3 lymphoma cells), 4 h. An outline of the steps:
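Luminescence ratio of IκBα-fused green versus native red beetle luciferase in OCI-Ly3 cells, 4 h post-doxycycline with compound; red signal alone, scaled from basal (0%) to zero light (-100%), flagged nonspecific or cytotoxic effects.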

The mark [1] stands for this setting: measured here: control luc red channel unless noted.

The structures appear in SMILES notation. Where “and” joins values, the source holds several entries; their conditions need not be identical. Equal values may be shown once. The list shows a part of the results. Further columns of the screen follow, without active or inactive calls. The list favours compounds with an active or inconclusive main result. Potencies come from curve fits of mixed quality, noted in brackets.

In general, AC50 refers to the concentration giving half of the maximal activity seen. `Cc1cc2cc(CN(Cc3ccco3)C(=O)NCc3ccccc3)c(=O)[nH]c2cc1C`: the AC50 under setting [1] is 31.6 µM [falling, partial curve]. On the same count and under the same terms, the figure for `Cc1nnc(N2CCC(C(=O)N3CCCCC3)CC2)c2nn(-c3ccc(Cl)cc3)c(C)c12` is 6.31 µM [falling, partial curve]; for `Cc1ccc(OCCCCn2nnc3sc4c(c3c2=O)CCCC4)cc1` it is 39.8 µM [falling, single point]. On the same count and under the same terms, the figure for `COc1cc(OC)cc(C(=O)Nc2ncc3c(n2)CC(C)(C)CC3=O)c1` is 7.94 µM [falling, partial curve]; for `CCC(c1nnnn1C(C)(C)CC)N(CCCO)Cc1cc2cc(C)cc(C)c2[nH]c1=O` (centres undefined) it is 31.6 µM [rising, single point] [measured here: IkB-luc green channel]; for `O=C(O)CCSc1nnc(-c2ccc3c(c2)OCO3)o1` it is 0.251 µM [falling, full curve]. The same measure, in the same setting: in the case of `CC1CCCN(CCCNC(=O)c2coc3nc4ccccc4nc23)C1` (centres undefined) it was 10 µM [falling, partial curve]; in that of `CCOc1cc(-c2nnc(SCC(=O)NC3CCCC3)nc2-c2ccc(OC)c(OCC)c2)ccc1OC`, 12.6 µM [rising, single point]; in that of `O=C1CC(c2ccco2)Cc2nc(N3CCN(Cc4ccc5c(c4)OCO5)CC3)ncc21` (centres undefined), 7.94 µM [falling, partial curve]. For the compound `CC(C)Cn1c2c(c(O)c(C(=O)Nc3ncccc3O)c1=O)CCCC2`, under setting [1], the AC50 is 7.94 µM [falling, single point]. Same read-out and setting: in the case of `O=C(CSc1nccn1C1CCCC1)Nc1ccc(C(F)(F)F)cc1` it was 31.6 µM [falling, single point]; in that of `CC(C)CCN1C(=O)c2ccccc2CC1(C)C(=O)NC1CCC(C)CC1` (centres undefined), 0.0631 µM [rising, full curve, poor fit]. Same read-out and setting: in the case of `O=C(c1ccccc1)c1ccc(C(=O)N2CCN(c3ccc(F)cc3)CC2)o1` it was 7.94 µM [falling, full curve, poor fit]; in that of `CC(C)c1ccc(-c2nc(C(N)=O)c3c(n2)n(-c2ccc4c(c2)OCO4)c(=O)n3C)cc1`, 2 µM [falling, partial curve]. Still for that read-out and setting: the figure for `Cc1ccccc1S(=O)(=O)Cc1ccc(C(=O)NC2CCC(C)CC2)o1` (centres undefined) is 25.1 µM [falling, single point]. For `Cc1ccc(CNC(=O)C2CCN(S(=O)(=O)c3ccc4[nH]c(=O)ccc4c3)CC2)cc1`, under setting [1], the half-maximal activity concentration (AC50) is 0.0631 µM [falling, full curve, poor fit].

For `COc1cc2c(cc1O)CC[C@@H]1[C@@H]2CC[C@@]2(C)[C@H](O)CC[C@H]12`, the concentration at half-maximal activity (AC50) runs as follows: (measured here: IkB-luc green channel) 12.6 µM [rising, partial curve]; (measured here: control luc red channel) 15.8 µM [rising, partial curve]. Regarding `Cc1nn(-c2ccccc2)c2c1N(CC(=O)N1CCN(c3ccc(F)cc3)CC1)C(=O)CS2`, the AC50 under setting [1] was 39.8 µM [falling, single point].

Turning to `CCOc1ccc(C(=O)c2ccc(OCC)c(N)c2)cc1N`, the concentration at half-maximal activity (AC50) under setting [1] was 5.01 µM [rising, partial curve].

As to `CC1(C)C(=O)N(CC(=O)Nc2cccc(F)c2)c2ccc(S(=O)(=O)N3CCCCC3)cc21`, the AC50 under setting [1] was 39.8 µM [falling, single point]. On the same count and under the same terms, the figure for `COc1cccc2cc(C(=O)Nc3ccc(F)c(F)c3)c(=O)oc12` is 0.2 µM [falling, full curve]; for `CC(=O)c1c(C)nn(CC(O)COc2ccc3c(c2)CCC3)c1C` (centres undefined) it is 25.1 µM [falling, single point]. The same measure, in the same setting: in the case of `CC(C)c1ccc(N2C(=O)CS(=O)(=O)C23C(=O)N(Cc2cccc(F)c2)c2ccccc23)cc1` (centres undefined) it was 31.6 µM [falling, partial curve, poor fit]; in that of `Cc1cc2c(C(C)C)c(O)c(O)c(C=O)c2c(O)c1-c1c(C)cc2c(C(C)C)c(O)c(O)c(C=O)c2c1O`, 12.6 µM [falling, partial curve] and 39.8 µM [falling, partial curve]; in that of `Cc1ccc(C)c(NC(=O)c2cc(S(=O)(=O)N3CCCc4ccccc43)ccc2F)c1`, 7.94 µM [falling, full curve, poor fit].

Regarding `CCOC(=O)c1ccc(NS(=O)(=O)c2ccc(-c3cc(C)no3)cc2)cc1`, under setting [1], the AC50 is 2.51 µM [falling, full curve]. On the same count and under the same terms, in the case of `Cc1cc(C)c(OCC(=O)N(Cc2ccco2)Cc2ccco2)c(C)c1` it was 31.6 µM [falling, single point]; in that of `COc1ccc(Cn2ccc3nc(C)c(C(=O)Nc4cc(C)cc(C)c4)cc3c2=O)cc1`, 25.1 µM [falling, partial curve]; in that of `Cc1nc2ccccc2c(=O)n1-c1ccc(NC(=O)c2cccc([N+](=O)[O-])c2)cc1`, 15.8 µM [falling, partial curve]. The same measure, in the same setting: in the case of `O=C(Nc1ccon1)c1cc(-c2ccccc2)nc2ccccc12` it was 7.94 µM [falling, partial curve]; in that of `COc1ccccc1CCNC(=O)c1ccc(-c2nc(CSc3ccc(C)cc3)c(C)o2)cc1`, 31.6 µM [falling, single point]; in that of `CCOc1ccccc1Nc1nnc(SCc2ccc(C(=O)OC)o2)s1`, 39.8 µM [falling, single point]. On the same count and under the same terms, in the case of `CCOC(=O)C1=C(C)NC(=O)NC1c1cn(-c2ccccc2)nc1-c1ccc(OCC)cc1` (centres undefined) it was 25.1 µM [falling, partial curve]; in that of `CCCCOc1cccc(C(=O)Nc2cccc(-c3nc4ncccc4o3)c2C)c1`, 10 µM [falling, partial curve]. On to `Cc1ccc(NC(=O)C2CCCN(c3ncnc4onc(-c5ccc(F)cc5)c34)C2)c(Cl)c1` (centres undefined), for which the AC50 under setting [1] was 20 µM [falling, partial curve].

Consider `CCC(C)NC(=O)Cn1ccc2cc(S(=O)(=O)N3CCCCC3)ccc21` (centres undefined), for which, under setting [1], the AC50 was 6.31 µM [rising, single point]. On the same count and under the same terms, in the case of `CC(C)c1ccc2oc(-c3ccc(NC(=O)c4ncn[nH]4)cc3)nc2c1` it was 0.2 µM [falling, full curve]; in that of `Cc1ccc(-n2c(Cc3cccn3C)nnc2SCC(=O)Nc2ccc3c(c2)OCO3)cc1`, 20 µM [falling, partial curve].
